Measured values: article PMC10895342
No constants are given. Whether binding was seen depends on the method and setting. In cells and extracts the contact can be indirect. Some binding calls cover weakened binding; strength is not graded here.

Chains of the proteins cited; added tags and fusions are not shown. Residues count along the entry.
UniProt P42685: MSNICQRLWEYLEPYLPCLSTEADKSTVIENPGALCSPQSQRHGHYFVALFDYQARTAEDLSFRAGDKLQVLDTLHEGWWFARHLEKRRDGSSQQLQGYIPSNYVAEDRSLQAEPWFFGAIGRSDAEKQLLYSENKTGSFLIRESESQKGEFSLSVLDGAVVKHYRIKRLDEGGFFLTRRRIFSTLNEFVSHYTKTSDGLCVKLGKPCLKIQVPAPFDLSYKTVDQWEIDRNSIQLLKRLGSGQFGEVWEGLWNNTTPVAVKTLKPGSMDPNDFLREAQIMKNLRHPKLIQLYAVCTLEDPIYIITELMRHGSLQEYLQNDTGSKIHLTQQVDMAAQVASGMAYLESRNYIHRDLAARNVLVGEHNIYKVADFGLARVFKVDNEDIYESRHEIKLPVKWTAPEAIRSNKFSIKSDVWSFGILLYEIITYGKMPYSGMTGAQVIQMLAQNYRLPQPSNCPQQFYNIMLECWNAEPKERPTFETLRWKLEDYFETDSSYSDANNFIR
UniProt Q922K9: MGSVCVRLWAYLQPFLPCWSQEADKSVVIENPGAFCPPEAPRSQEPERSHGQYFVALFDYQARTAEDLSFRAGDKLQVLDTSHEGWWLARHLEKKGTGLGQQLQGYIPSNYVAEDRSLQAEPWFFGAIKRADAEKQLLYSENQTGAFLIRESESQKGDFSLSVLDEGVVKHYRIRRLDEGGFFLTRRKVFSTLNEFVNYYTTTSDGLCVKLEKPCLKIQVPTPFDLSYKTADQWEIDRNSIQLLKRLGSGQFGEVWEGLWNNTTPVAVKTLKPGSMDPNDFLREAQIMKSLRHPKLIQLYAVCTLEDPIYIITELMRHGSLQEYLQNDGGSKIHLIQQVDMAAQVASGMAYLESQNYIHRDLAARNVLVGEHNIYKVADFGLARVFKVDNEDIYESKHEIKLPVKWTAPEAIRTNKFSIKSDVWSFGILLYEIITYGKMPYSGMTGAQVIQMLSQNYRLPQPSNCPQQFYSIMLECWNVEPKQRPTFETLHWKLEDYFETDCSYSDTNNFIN
UniProt P01024, residues 23-1663: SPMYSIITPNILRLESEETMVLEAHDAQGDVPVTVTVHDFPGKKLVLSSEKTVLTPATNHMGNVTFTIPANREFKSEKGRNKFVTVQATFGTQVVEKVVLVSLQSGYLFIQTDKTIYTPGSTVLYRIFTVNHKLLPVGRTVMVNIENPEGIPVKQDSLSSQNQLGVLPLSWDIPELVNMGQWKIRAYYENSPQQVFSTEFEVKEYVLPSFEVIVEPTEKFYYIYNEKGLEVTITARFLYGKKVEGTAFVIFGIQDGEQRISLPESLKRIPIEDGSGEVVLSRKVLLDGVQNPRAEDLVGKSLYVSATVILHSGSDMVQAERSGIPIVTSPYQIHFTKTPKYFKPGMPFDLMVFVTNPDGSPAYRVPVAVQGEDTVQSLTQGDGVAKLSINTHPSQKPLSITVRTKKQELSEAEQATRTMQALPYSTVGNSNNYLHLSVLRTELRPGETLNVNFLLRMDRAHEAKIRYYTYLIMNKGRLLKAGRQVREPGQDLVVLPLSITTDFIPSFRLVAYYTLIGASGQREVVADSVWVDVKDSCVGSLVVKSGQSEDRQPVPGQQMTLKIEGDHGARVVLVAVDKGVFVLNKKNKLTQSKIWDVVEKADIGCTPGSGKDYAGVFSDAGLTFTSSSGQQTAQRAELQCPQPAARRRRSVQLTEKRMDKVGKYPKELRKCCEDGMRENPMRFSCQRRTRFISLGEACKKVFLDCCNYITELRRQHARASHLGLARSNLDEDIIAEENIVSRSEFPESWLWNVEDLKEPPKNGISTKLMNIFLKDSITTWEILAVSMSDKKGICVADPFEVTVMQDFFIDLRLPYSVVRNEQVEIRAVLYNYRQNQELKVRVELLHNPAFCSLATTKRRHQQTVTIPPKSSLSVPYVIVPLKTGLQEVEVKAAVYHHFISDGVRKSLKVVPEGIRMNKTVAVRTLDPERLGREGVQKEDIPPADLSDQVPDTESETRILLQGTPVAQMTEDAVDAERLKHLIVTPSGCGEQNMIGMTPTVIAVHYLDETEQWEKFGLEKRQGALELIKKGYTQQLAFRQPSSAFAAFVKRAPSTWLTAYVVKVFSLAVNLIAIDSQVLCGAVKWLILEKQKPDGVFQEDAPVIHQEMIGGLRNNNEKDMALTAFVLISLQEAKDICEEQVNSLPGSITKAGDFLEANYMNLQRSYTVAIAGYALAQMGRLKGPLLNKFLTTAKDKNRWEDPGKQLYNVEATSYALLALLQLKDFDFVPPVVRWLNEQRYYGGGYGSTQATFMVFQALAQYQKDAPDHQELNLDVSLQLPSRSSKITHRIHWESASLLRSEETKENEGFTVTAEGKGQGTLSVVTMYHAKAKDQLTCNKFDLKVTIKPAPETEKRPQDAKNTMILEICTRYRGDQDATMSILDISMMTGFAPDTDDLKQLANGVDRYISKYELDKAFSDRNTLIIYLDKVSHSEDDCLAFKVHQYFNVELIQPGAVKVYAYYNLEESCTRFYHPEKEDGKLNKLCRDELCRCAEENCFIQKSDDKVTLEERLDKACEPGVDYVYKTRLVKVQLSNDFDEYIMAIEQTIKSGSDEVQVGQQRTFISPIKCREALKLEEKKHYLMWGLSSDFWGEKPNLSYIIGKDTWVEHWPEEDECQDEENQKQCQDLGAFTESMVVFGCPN
UniProt P01027, residues 25-1663: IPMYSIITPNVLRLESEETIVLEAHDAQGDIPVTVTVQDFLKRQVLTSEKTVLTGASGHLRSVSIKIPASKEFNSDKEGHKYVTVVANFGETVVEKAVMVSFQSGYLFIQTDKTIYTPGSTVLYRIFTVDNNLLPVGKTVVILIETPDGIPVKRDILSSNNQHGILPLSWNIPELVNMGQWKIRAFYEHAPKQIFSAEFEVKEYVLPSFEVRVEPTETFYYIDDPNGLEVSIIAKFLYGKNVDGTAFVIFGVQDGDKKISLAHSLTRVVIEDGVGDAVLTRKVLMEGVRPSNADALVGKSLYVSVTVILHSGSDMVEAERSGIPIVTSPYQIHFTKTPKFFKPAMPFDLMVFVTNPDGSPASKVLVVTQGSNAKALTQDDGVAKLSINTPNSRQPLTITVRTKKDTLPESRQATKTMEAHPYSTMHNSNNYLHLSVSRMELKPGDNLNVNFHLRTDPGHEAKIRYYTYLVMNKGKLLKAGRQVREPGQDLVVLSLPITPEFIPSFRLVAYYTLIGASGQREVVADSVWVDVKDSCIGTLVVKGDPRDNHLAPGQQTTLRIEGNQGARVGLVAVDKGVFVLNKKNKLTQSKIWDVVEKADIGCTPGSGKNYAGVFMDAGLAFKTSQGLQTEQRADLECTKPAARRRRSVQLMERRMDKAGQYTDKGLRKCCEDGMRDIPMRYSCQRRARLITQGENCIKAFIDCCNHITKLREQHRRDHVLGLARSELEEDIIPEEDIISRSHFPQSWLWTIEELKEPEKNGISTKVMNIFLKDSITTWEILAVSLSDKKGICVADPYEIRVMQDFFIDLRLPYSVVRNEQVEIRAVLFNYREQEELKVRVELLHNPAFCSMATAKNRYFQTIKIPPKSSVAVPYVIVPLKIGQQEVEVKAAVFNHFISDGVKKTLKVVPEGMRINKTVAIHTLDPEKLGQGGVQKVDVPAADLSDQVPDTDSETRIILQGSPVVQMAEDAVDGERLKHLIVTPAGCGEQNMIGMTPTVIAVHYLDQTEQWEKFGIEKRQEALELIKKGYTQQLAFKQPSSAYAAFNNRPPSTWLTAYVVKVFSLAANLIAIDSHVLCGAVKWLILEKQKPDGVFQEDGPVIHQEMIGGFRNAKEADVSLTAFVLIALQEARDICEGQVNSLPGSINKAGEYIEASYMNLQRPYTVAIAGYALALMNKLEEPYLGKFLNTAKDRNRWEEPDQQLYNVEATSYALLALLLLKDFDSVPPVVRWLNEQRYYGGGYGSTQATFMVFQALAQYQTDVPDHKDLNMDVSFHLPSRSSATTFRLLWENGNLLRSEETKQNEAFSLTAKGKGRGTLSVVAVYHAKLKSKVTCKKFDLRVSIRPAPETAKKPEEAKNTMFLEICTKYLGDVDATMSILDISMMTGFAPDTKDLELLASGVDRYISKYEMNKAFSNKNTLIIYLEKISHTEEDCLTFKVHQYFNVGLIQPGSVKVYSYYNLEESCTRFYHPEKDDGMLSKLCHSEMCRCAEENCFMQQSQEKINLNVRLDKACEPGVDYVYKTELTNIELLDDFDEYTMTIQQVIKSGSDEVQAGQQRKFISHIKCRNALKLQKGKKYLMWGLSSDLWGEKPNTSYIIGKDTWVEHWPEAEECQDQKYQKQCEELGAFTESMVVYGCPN

Tests used:
[1] = biological target: human FRK expressed in INS-1 cells (human) (UniProt P42685); assay: proximity ligation; Duolink PLA in INS-1 cells expressing human C3 (stable or cotransfected WT or ΔATG1 plasmid) and transfected with human FRK plasmid; mouse anti-human C3/C3a and goat anti-FRK primary antibodies
[2] = biological target: mouse FRK, endogenous in pancreatic islets (mouse (endogenous in mouse islets)) (UniProt Q922K9); assay: proximity ligation; Naveniflex tissue PLA on freshly isolated, fixed and permeabilised primary mouse islets; rabbit anti-mouse FRK and goat anti-mouse C3 primary antibodies; C3 KO islets as negative control

Substance	binding [1]	binding [2]
human C3, WT (canonical), expressed in INS-1 cells (from UniProt P01024 23-1663)	binds	
mouse C3, endogenous in pancreatic islets (from UniProt P01027 25-1663)		binds
